Laboratory results taken from PMC3299299, “Recombinant Expression and Characterization of Human and Murine ACE2: Species-Specific Activation of the Alternative Renin-Angiotensin-System” (International Journal of Hypertension, 2012).
Results are given in words; binding and its absence hold for the method and conditions named. Some results given as binding are weak or reduced against the parent protein; the word gives no strength.

Biological target: T1, recombinant murine ACE2 (angiotensin-converting enzyme 2), extracellular domain (murine), Q8R0I0
T1 chain: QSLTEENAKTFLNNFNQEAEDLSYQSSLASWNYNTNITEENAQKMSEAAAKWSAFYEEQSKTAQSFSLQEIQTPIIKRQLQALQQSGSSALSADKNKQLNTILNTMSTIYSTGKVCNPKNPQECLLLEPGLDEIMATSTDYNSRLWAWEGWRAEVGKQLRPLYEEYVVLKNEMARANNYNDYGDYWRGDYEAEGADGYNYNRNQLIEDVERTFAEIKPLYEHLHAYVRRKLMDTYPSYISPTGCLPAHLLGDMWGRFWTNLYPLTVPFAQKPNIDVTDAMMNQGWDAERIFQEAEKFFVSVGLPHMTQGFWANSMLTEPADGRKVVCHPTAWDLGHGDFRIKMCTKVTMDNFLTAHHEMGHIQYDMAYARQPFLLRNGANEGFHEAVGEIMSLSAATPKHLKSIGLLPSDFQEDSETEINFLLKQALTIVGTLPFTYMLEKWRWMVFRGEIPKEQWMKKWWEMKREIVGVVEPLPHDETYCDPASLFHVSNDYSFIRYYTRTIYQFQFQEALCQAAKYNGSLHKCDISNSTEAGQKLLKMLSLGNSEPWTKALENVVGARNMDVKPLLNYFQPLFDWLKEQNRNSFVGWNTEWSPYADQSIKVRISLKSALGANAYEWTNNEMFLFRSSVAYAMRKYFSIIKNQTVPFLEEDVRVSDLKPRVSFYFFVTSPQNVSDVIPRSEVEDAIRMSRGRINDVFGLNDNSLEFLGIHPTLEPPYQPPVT
Test: SEC; size-exclusion chromatography of 5 ug of the purified enzyme, absorbance at 280 nm in line; both purified
Settings: remark: other sources report otherwise

binding: binds
B1: recombinant murine ACE2 (angiotensin-converting enzyme 2), extracellular domain, Q8R0I0 18-740 (enzyme)
chain: T1 chain
